PubChem BioAssay AID743121 – NCATS, 2013
Screen: 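Genes whose silencing strengthens cell killing by camptothecin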 (primary screen). Cell system: MDA-MB-231 cells, a human breast cancer line. Knock-down reagent: single siRNA against human genes, 20 nM siRNA (0.8 pmol per well). Time to read-out: 120 h (drug added 48 h after transfection, read 72 h later). Conditions: camptothecin 20 nM (about EC30) for 72 h; vehicle 0.1% DMSO in parallel plates. Measurement: 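CellTiter-Glo ATP signal, scaled to control siRNA as percent viability; sensitisation given as log2 of untreated divided by camptothecin-treated viability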. Reading the numbers: log2 vehicle/camptothecin viability: higher = stronger sensitisation to camptothecin; viability with camptothecin and viability without drug: higher = more viable cells. Rule for the call: 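Each gene scored by redundant siRNA activity (RSA) over its individual siRNA ratios; a gene is called active at p < 0.001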.
This is one part, drawn at random, of about 26,000 reagents tested. 167 of all reagents (0.63%) were called active. 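Calls are per gene from RSA p-values that are not deposited; an individual active-marked siRNA can sensitise only weakly.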 Reagents against one gene are numbered here.

| gene symbol | reagent no. | log2 vehicle/camptothecin viability | viability with camptothecin (% of control) | viability without drug (% of control) | activity call |
| --- | --- | --- | --- | --- | --- |
| IL23R (interleukin 23 receptor) | 1 | 0.153 | 91.2 | 101 | inactive |
| IL23R (interleukin 23 receptor) | 2 | -0.251 | 87.4 | 73.4 | inactive |
| IL23R (interleukin 23 receptor) | 3 | 0.0386 | 76.6 | 78.7 | inactive |
| IL23R (interleukin 23 receptor) | 4 | -0.0234 | 96.6 | 95.1 | inactive |
| KCNA3 (potassium voltage-gated channel subfamily A member 3) | 1 | 0.105 | 102 | 110 | inactive |
| KCNA3 (potassium voltage-gated channel subfamily A member 3) | 2 | -0.437 | 85.8 | 63.4 | inactive |
| KCNA3 (potassium voltage-gated channel subfamily A member 3) | 3 | 0.0832 | 77.8 | 82.5 | inactive |
| KCNA3 (potassium voltage-gated channel subfamily A member 3) | 4 | -0.297 | 103 | 84.1 | inactive |
| CYP21A2 (cytochrome P450 family 21 subfamily A member 2) | 1 | -0.117 | 85.8 | 79.2 | inactive |
| CYP21A2 (cytochrome P450 family 21 subfamily A member 2) | 2 | -0.552 | 17 | 11.6 | inactive |
| CYP21A2 (cytochrome P450 family 21 subfamily A member 2) | 3 | -0.252 | 43.4 | 36.5 | inactive |
| CYP21A2 (cytochrome P450 family 21 subfamily A member 2) | 4 | -0.574 | 52.4 | 35.2 | inactive |
| SESTD1 (SEC14 and spectrin domain containing 1) | 1 | -0.0321 | 86.3 | 84.4 | inactive |
| SESTD1 (SEC14 and spectrin domain containing 1) | 2 | -0.15 | 99.2 | 89.4 | inactive |
| SESTD1 (SEC14 and spectrin domain containing 1) | 3 | -0.624 | 57.4 | 37.3 | inactive |
| ULK1 (unc-51 like autophagy activating kinase 1) | 1 | -1.09 | 81.9 | 38.6 | inactive |
| ULK1 (unc-51 like autophagy activating kinase 1) | 2 | -0.399 | 92.1 | 69.9 | inactive |
| ULK1 (unc-51 like autophagy activating kinase 1) | 3 | -0.218 | 61.8 | 53.2 | inactive |
| ULK1 (unc-51 like autophagy activating kinase 1) | 4 | -0.559 | 81.3 | 55.1 | inactive |
| PDPR (pyruvate dehydrogenase phosphatase regulatory subunit) | 1 | -0.179 | 128 | 113 | inactive |
| PDPR (pyruvate dehydrogenase phosphatase regulatory subunit) | 2 | -0.414 | 89.6 | 67.2 | inactive |
| PDPR (pyruvate dehydrogenase phosphatase regulatory subunit) | 3 | -0.0041 | 58.9 | 58.7 | inactive |
| PDPR (pyruvate dehydrogenase phosphatase regulatory subunit) | 4 | 0.151 | 54.9 | 60.9 | inactive |
| P2RY6 (pyrimidinergic receptor P2Y6) | 1 | 0.204 | 44.4 | 51.2 | inactive |
| P2RY6 (pyrimidinergic receptor P2Y6) | 2 | -0.0194 | 58.4 | 57.6 | inactive |
| P2RY6 (pyrimidinergic receptor P2Y6) | 3 | -0.237 | 68 | 57.6 | inactive |
| P2RY6 (pyrimidinergic receptor P2Y6) | 4 | -0.311 | 84.2 | 67.9 | inactive |
| STX6 (syntaxin 6) | 1 | -0.2 | 45.1 | 39.2 | inactive |
| STX6 (syntaxin 6) | 2 | -0.303 | 110 | 89.2 | inactive |
| STX6 (syntaxin 6) | 3 | -0.283 | 94.8 | 77.9 | inactive |

Part of the list above in another layout:
gene symbol | reagent no. | log2 vehicle/camptothecin viability | viability with camptothecin (% of control) | viability without drug (% of control) | activity call
ULK1 (unc-51 like autophagy activating kinase 1) | 1 | -1.09 | 81.9 | 38.6 | inactive
ULK1 (unc-51 like autophagy activating kinase 1) | 2 | -0.399 | 92.1 | 69.9 | inactive

The list goes on:
| gene symbol | reagent no. | log2 vehicle/camptothecin viability | viability with camptothecin (% of control) | viability without drug (% of control) | activity call |
| --- | --- | --- | --- | --- | --- |
| PPM1G (protein phosphatase, Mg2+/Mn2+ dependent 1G) | 1 | -0.432 | 56.5 | 41.9 | inactive |
| PPM1G (protein phosphatase, Mg2+/Mn2+ dependent 1G) | 2 | -0.873 | 38.7 | 21.1 | inactive |
| PPM1G (protein phosphatase, Mg2+/Mn2+ dependent 1G) | 3 | -0.048 | 69.2 | 67 | inactive |
| PPM1G (protein phosphatase, Mg2+/Mn2+ dependent 1G) | 4 | 0.228 | 74.3 | 87 | inactive |
| CEACAM1 (CEA cell adhesion molecule 1) | 1 | -0.119 | 99.7 | 91.9 | inactive |
| CEACAM1 (CEA cell adhesion molecule 1) | 2 | 0.493 | 37.7 | 53.1 | inactive |
| CEACAM1 (CEA cell adhesion molecule 1) | 3 | 0.317 | 54.9 | 68.4 | inactive |
| CEACAM1 (CEA cell adhesion molecule 1) | 4 | -0.199 | 98 | 85.4 | inactive |
| PINK1 (PTEN induced kinase 1) | 1 | 0.074 | 57.8 | 60.8 | inactive |
| PINK1 (PTEN induced kinase 1) | 2 | -0.0211 | 85.1 | 83.8 | inactive |
| PINK1 (PTEN induced kinase 1) | 3 | -0.239 | 79.2 | 67.2 | inactive |
| PINK1 (PTEN induced kinase 1) | 4 | -0.337 | 87.6 | 69.4 | inactive |
| LTK (leukocyte receptor tyrosine kinase) | 1 | -0.258 | 72.6 | 60.7 | inactive |
| LTK (leukocyte receptor tyrosine kinase) | 2 | -0.157 | 90 | 80.7 | inactive |
| LTK (leukocyte receptor tyrosine kinase) | 3 | -0.411 | 64 | 48.1 | inactive |
| LTK (leukocyte receptor tyrosine kinase) | 4 | -0.0329 | 43.2 | 42.2 | inactive |
